Screening data

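Uptake of anthrax lethal toxin into cultured cells, read by FRET (460/530 nm ratio) and reported from the 460 nm channel; the cell line is not named here. Each compound was tested as a concentration series from about 0.0005 to 40 µM. The number is the fitted AC50 of the 460 nm signal alone; lower values mean a more potent effect. A falling signal goes with compounds filed as inhibitors or cytotoxic, a rising one with activators or fluorescent compounds (inferred from the filed classes).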

Values are in µM. Common to all entries: measured here: 460 nm channel. This is a side read-out of the assay, for part of the compounds, not drawn at random. Potencies fitted to partial, single-point or poorly fitting curves are rough. The first word of each remark tells which way the curve ran; it can be opposite to the aim of the assay.

structure,AC50 (µM),curve as filed
c1ccc(Nc2cccc3ccccc23)cc1,12.59,"falling, partial curve"
CC(=O)OCC1OC(C#CCC2CCCCC2)C=CC1OC(C)=O (centres undefined),0.3162,"falling, partial curve"
Nc1c(C(=O)NCCc2ccccc2)c2nc3ccccc3nc2n1CCN1CCOCC1,10,"rising, partial curve"
Cc1ccc(C(=O)Nc2ccccc2C(=O)NC2CCCCC2)cc1S(=O)(=O)N1CCOCC1,5.012,"rising, single point"
CC1=CC(C)(C)Nc2ccc(OC(=O)c3cccnc3)cc21,3.981,"rising, single point"
COc1ccc(OC)c(C2C3CN(C(C)C)CC=C3C(C#N)=C(N)C2(C#N)C#N)c1 (centres undefined),6.31,"rising, partial curve"
CCNc1ncc2nc(-c3ccc(OC)cc3)c(=O)n(Cc3cccs3)c2n1,10,"rising, partial curve"
COc1ccc(CNc2nc(-c3ccc(N(C)C)cc3)nc3ccccc23)c(OC)c1,5.012,"rising, partial curve"
CCCc1ccc(OCCNC(=O)CC)cc1,0.01259,"falling, full curve"
COc1ccc(C(C)=O)c2c(O)cccc12,0.01,"falling, full curve, poor fit"
CCOC(=O)c1ccc(Oc2cc(C)nc(SC)n2)cc1,5.012,"falling, partial curve"
O=C(c1ccccc1C(=O)N1CCN(c2ccccc2)CC1)N1CCN(c2ccccc2)CC1,31.62,"rising, single point"
CCC1Oc2ccccc2N(CC(=O)NCCN2C(C)CCCC2C)C1=O (centres undefined),0.1259,"falling, full curve, poor fit"
COc1ccc(S(=O)(=O)NCCCCCC(=O)NCCCN2CCOCC2)cc1,31.62,"rising, single point"
Cn1c(=O)cc(OCC(=O)NCCCN2CCN(c3cccc(Cl)c3)CC2)c2ccccc21,12.59,"falling, single point"
CN1C(=O)COc2c(C(=O)N[C@@H]3CN4CCC3CC4)cc(Cl)cc21,0.003981,"rising, full curve, poor fit"
C=CCOc1ccc(CC2C(=O)N(C)C(=O)N(C)C2=O)cc1,0.631,"rising, full curve, poor fit"
Cc1noc(C)c1-c1nccc(NCc2ccccc2)n1,1.995,"rising, partial curve"
COc1cc2c(cc1OC)-c1c(OC)c(OC)cc3ccnc(c13)C2=O,31.62,"falling, single point"
CCN(CC)S(=O)(=O)c1cccc(-c2nnc(SCCOc3ccc(Cl)cc3)o2)c1,3.162,"falling, partial curve"
CCCn1c(Nc2nc3ccccc3n2C)nc2ccccc21,12.59,"falling, partial curve"
COc1c(Br)cc2c(C)c(C(=O)O)oc2c1Br,0.3162,"rising, full curve, poor fit"
COc1cccc(-n2c(CNc3ccc(F)cc3)nnc2SCC(N)=O)c1,15.85,"rising, single point"
CN(C)c1ncc2nc(CCc3ccccc3)c(=O)n(-c3ccccc3)c2n1,19.95,"rising, partial curve"
CCOC(=O)N1CCC(N2Cc3cccc(C(=O)NCc4ccc(OC)cc4)c3C2=O)CC1,10,"rising, partial curve"
c1ccc(CNc2nc(-c3ccoc3)nc3ccccc23)cc1,31.62,"falling, single point"
O=c1c(-c2cc(F)cc(F)c2)nc2cnc(N3CCNCC3)nc2n1Cc1cccs1,1.995,"rising, full curve"
O=c1[nH]c2ccc(Br)cc2c(-c2ccccc2)c1N1CCOCC1,15.85,"rising, single point"
NC(N)=N/N=C(\c1ccc(Cl)cc1)C1CC1,0.2512,"falling, full curve"
CCCC/C=C/[C@@H](NP(=O)(c1ccccc1)c1ccccc1)c1ccccc1OC,25.12,"falling, single point"
O=c1[nH]c2ccccc2n1CCCN1CCN(C(c2ccccc2)c2ccccc2)CC1,0.007943,"rising, full curve, poor fit"
CN1CCN(c2ncc3nc(-c4cccs4)c(=O)n(Cc4ccc(F)cc4)c3n2)CC1,1.995,"rising, full curve"
Cn1nnc2cc(C(=O)N3CCCCCC3)ccc21,1.585,"rising, single point"
CN(C)/C=C1\C(=O)c2ccc(N(C)C)nc2CC1c1ccccc1 (centres undefined),12.59,"rising, partial curve"
Cc1cc(O)c(NC(=O)c2ccc(Br)o2)cc1C,0.03162,"falling, full curve"
CC(C)n1nnnc1SCC(=O)N1CCOCC1,5.012,"rising, single point"
CC(=O)c1cccc(NC(=O)N2CCCC2C(=O)Nc2cccc(C)c2C)c1 (centres undefined),25.12,"rising, single point"

Some entries from above, unchanged:

| structure | AC50 (µM) | curve as filed |
|---|---|---|
| `C=CCOc1ccc(CC2C(=O)N(C)C(=O)N(C)C2=O)cc1` | 0.631 | rising, full curve, poor fit |
| `Cc1cc(O)c(NC(=O)c2ccc(Br)o2)cc1C` | 0.03162 | falling, full curve |
| `CCOC(=O)N1CCC(N2Cc3cccc(C(=O)NCc4ccc(OC)cc4)c3C2=O)CC1` | 10 | rising, partial curve |
| `COc1cc2c(cc1OC)-c1c(OC)c(OC)cc3ccnc(c13)C2=O` | 31.62 | falling, single point |

From PubChem BioAssay record AID912 (NCATS, 2007).